Measurements: US20180371107A1 (published 2018)
No constants are given. Whether binding was seen depends on the method and setting. A result given as binding can be weak or reduced; the word gives no strength.

The chains behind the UniProt entries cited, without tags or fusion partners. Where a name states a change or a piece, a line headed by the entry shows the natural chain unless it says otherwise.
UniProt Q14B24: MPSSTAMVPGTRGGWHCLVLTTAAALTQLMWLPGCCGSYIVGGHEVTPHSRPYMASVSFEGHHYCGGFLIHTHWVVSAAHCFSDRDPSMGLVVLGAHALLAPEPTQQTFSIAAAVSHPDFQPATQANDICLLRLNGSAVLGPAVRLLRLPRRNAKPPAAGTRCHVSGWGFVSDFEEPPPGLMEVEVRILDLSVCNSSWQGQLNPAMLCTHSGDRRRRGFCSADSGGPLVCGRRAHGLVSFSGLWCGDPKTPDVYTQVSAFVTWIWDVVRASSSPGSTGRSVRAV

Columns and labels:
[1] = target: mouse active NSP4 (mA-NSP4) (mouse) (UniProt Q14B24); experiment: biolayer interferometry
[2] = target: mouse active NSP4 (mA-NSP4) (mouse) (UniProt Q14B24); experiment: biolayer interferometry, IgG1 on anti-human Fc sensors
[3] = target: mouse active NSP4 (mA-NSP4) (mouse) (UniProt Q14B24); experiment: biolayer interferometry, human IgG1

Measured: binding

B1: anti-NSP4 antibody 5-3 (antibody, human IgG1, V domains shown)
VH: EVQLVESGGGLVQPGGSLRLSCAASGFTFSGNDISWVRQAPGKGLEWVAGISPYGGSTYYADSVKGRFTISADTSKNTAYLQMNSLRAEDTAVYYCARRVSFYSRHAGMDYWGQGTLVTVSS
VL: DIQMTQSPSSLSASVGDRVTITCRASQDVSTAVAWYQQKPGKAPKLLIYSASFLYSGVPSRFSGSGSGTDFTLTISSLQPEDFATYYCQQSYTTPPTFGQGTKVEIKR
binds: all assays above
